These are yes or no findings as the source states them, for the method shown. Some results given as binding are weak or reduced against the parent protein; the word gives no strength.
B1: hJOVI-1 (humanised JOVI-1 antibody, reference antibody) (antibody, V domains shown)
VH: QVQLVQSGAEVKKPGASVKVSCKASGYTFTGYVMHWVRQAPGQGLEWMGFINPYNDDIQSNERFRGRVTMTRDTSISTAYMELSRLRSDDTAVYYCARGAGYNFDGAYRFFDFWGQGTMVTVSS
VL: DIVMTQSPLSLPVTPGEPASISCRSSQRLVHSNGNTYLHWYLQKPGQSPRLLIYRVSNRFPGVPDRFSGSGSGTDFTLKISRVEAEDVGVYYCSQSTHVPYTFGQGTKLEIK
notes: Tested in IgG format and captured by anti-human IgG in SPR; also called aTRBC1; anti-TRBC1 antibody hJOVI-1
B2: Mut8 (antibody, V domains shown)
VH: QVQLVQSGAEVKKPGASVKVSCKASGYTFTSYVMHWVRQAPGQGLEWMGFINPYNDDIQSNERFRGRVTMTRDTSISTAYMELSRLRSDDTAVYYCARGAGYNFDGAYRFFDFWGQGTMVTVSS
VL: DIVMTQSPLSLPVTPGEPASISCRSSQRLVHSNGNTYLHWYLQKPGQSPRLLIYRVSNRFPGVPDRFSGSGSGTDFTLKISRVEAEDVGVYYCSQSTHVPYTFGQGTKLEIK
notes: Variant of hJOVI-1; captured by anti-human IgG in SPR; also called VH G31S
B3: Mut9 (antibody, V domains shown)
VH: QVQLVQSGAEVKKPGASVKVSCKASPYKFTGYVMHWVRQAPGQGLEWMGFINPYNDDIQSNERFRGRVTMTRDTSISTAYMELSRLRSDDTAVYYCARGAGYNFDGAYRFFDFWGQGTMVTVSS
VL: DIVMTQSPLSLPVTPGEPASISCRSSQRLVHSNGNTYLHWYLQKPGQSPRLLIYRVSNRFPGVPDRFSGSGSGTDFTLKISRVEAEDVGVYYCSQSTHVPYTFGQGTKLEIK
notes: Variant of hJOVI-1; captured by anti-human IgG in SPR; also called VH G26P, T28K
B4: Mut10 (antibody, V domains shown)
VH: QVQLVQSGAEVKKPGASVKVSCKASGYTFTGYVMHWVRQAPGQGLEWMGFINPYNDDIQSNERFRGRVTMTRDTSISTAYMELSRLRSDDTAVYYCARGAGMNFDGAYRFFDFWGQGTMVTVSS
VL: DIVMTQSPLSLPVTPGEPASISCRSSQRLVHSNGNTYLHWYLQKPGQSPRLLIYRVSNRFPGVPDRFSGSGSGTDFTLKISRVEAEDVGVYYCSQSTHVPYTFGQGTKLEIK
notes: Variant of hJOVI-1; captured by anti-human IgG in SPR; also called VH Y102M
B5: Mut11 (antibody, V domains shown)
VH: QVQLVQSGAEVKKPGASVKVSCKASGYTFTGYVMHWVRQAPGQGLEWMGFINPYNDDIQSNERFRGRVTMTRDTSISTAYMELSRLRSDDTAVYYCARGAGYNFDAAYRFFDFWGQGTMVTVSS
VL: DIVMTQSPLSLPVTPGEPASISCRSSQRLVHSNGNTYLHWYLQKPGQSPRLLIYRVSNRFPGVPDRFSGSGSGTDFTLKISRVEAEDVGVYYCSQSTHVPYTFGQGTKLEIK
notes: Variant of hJOVI-1; IgG format; also called VH G106A; anti-TRBC1 antibody Mut11
B6: Mut12 (antibody, V domains shown)
VH: QVQLVQSGAEVKKPGASVKVSCKASGYKFTGFVMHWVRQAPGQGLEWMGFINPYNDDIQSNERFRGRVTMTRDTSISTAYMELSRLRSDDTAVYYCARGNGYLFDGAYRFFDFWGQGTMVTVSS
VL: DIVMTQSPLSLPVTPGEPASISCRSSQRLVHSNGKTYLHWYLQKPGQSPRLLIYRVSNRFPGVPDRFSGSGSGTDFTLKISRVEAEDVGVYYCSQSTHVPYTFGQGTKLEIK
notes: Variant of hJOVI-1; captured by anti-human IgG in SPR; also called VH T28K, Y32F, A100N, N103L; VL N35K
B7: Mut13 (antibody, V domains shown)
VH: QVQLVQSGAEVKKPGASVKVSCKASGYKFTGFVMHWVRQAPGQGLEWMGFINPYNDDIQSNERFRGRVTMTRDTSISTAYMELSRLRSDDTAVYYCARGNGYNFDGAYRFFDFWGQGTMVTVSS
VL: DIVMTQSPLSLPVTPGEPASISCRSSQRLVHSNGKTYLHWYLQKPGQSPRLLIYRVSNRFPGVPDRFSGSGSGTDFTLKISRVEAEDVGVYYCSQSTHVPYTFGQGTKLEIK
notes: Variant of hJOVI-1; captured by anti-human IgG in SPR; also called VH T28K, Y32F, A100N; VL N35K
B8: Mut14 (antibody, V domains shown)
VH: QVQLVQSGAEVKKPGASVKVSCKASGYKFTGFVMHWVRQAPGQGLEWMGFINPYNDDIQSNERFRGRVTMTRDTSISTAYMELSRLRSDDTAVYYCARGNGYNFDGSYRFFDFWGQGTMVTVSS
VL: DIVMTQSPLSLPVTPGEPASISCRSSQRLVHSNGNTYLHWYLQKPGQSPRLLIYRVSNRFPGVPDRFSGSGSGTDFTLKISRVEAEDVGVYYCSQSTHVPYTFGQGTKLEIK
notes: Variant of hJOVI-1; IgG format; also called VH T28K, Y32F, A100N, A107S

Protein sequences, listed by entry. Tags and fused reporters are not part of them. Residues count along the entry.
UniProt P01850, residues 1-129: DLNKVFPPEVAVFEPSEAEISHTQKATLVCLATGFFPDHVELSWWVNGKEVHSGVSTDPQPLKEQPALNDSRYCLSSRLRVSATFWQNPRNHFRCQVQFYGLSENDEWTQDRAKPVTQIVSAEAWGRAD

What was measured:
[1] = target: TRBC1 (T cell receptor beta-chain constant domain 1), interaction partner protein injected in SPR (human) (UniProt P01850); assay: SPR, plot of kon against koff headed TRBC1; '868' is not explained in the filing
[2] = target: TRBC1 (T cell receptor beta-chain constant domain 1), interaction partner protein injected in SPR (human) (UniProt P01850); assay: SPR (Biacore T200), antibody captured on anti-human IgG chip, TRBC injected; target TRBC1 per paragraph 372 and Table 1, not printed on the sheet
[3] = target: TRBC1 (T cell receptor beta-chain constant domain 1), interaction partner protein injected in SPR (human) (UniProt P01850); assay: SPR (Biacore T200), antibody captured on anti-human IgG chip, TRBC injected; target TRBC1 per paragraph 372 and Table 1, not printed on the sheet [Continued]

| Binder | binding [1] | binding [2] | binding [3] |
| --- | --- | --- | --- |
| B1 | binds | binds |  |
| B2 |  |  | binds |
| B3 |  | binds |  |
| B4 |  |  | binds |
| B5 |  |  | binds |
| B6 |  |  | binds |
| B7 |  |  | binds |
| B8 |  |  | binds |
